Source: PMC4534038, “Plasmodium falciparum Hop (PfHop) Interacts with the Hsp70 Chaperone in a Nucleotide-Dependent Fashion and Exhibits Ligand Selectivity” (PLoS ONE, 2015)
Results are given in words; binding and its absence hold for the method and conditions named. For part of these data: In cells and extracts the contact can be indirect. Some binding calls cover weakened binding; strength is not graded here. For part of these data: Sequences can lack the tags named with a protein. Each block holds one molecule with its values, some of them ahead of it.

Sequences of proteins named here, by UniProt entry; tags and fusion partners are left off. A change or cut given only in a name is not applied to a line headed by its entry. A line that says so, or that is headed by a name, gives the form on record, which may keep a tag or linker. Residues count along the entry.
UniProt Q8IB24: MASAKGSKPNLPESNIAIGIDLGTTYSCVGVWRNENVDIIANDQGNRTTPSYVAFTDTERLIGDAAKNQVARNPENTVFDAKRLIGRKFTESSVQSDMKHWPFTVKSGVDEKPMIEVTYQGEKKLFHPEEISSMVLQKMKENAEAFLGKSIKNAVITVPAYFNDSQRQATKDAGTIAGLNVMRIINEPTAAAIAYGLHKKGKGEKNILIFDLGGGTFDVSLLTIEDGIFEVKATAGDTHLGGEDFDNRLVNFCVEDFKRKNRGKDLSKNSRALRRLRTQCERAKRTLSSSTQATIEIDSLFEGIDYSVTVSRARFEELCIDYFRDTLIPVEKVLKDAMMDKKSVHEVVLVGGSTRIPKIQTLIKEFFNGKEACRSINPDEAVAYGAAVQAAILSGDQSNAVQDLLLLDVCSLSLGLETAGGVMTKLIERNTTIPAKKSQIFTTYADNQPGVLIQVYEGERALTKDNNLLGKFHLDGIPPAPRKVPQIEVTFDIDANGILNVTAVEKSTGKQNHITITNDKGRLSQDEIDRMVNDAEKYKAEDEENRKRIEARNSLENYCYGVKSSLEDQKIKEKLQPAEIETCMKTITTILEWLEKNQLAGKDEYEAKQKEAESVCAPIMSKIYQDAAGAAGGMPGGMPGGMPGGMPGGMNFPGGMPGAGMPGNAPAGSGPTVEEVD
ATPase subdomain of PfHsp70-1 (PfHsp70-1NBD), recombinant, his-tagged: residues 1-398 of Q8IB24

Tests used:
[1] = molecular target: T1, PfHop, endogenous in P. falciparum parasites (Plasmodium falciparum (endogenous in parasites)) (UniProt Q8ILC1); assay: co-IP; P. falciparum trophozoite lysate (about 300 μg protein) on resin coupled with anti-PfHop antibodies, 2 h at 4°C; 5 mM ATP or 5 mM ADP; Western blot with anti-PfHsp70-1 and anti-PfHop
T1 sequence: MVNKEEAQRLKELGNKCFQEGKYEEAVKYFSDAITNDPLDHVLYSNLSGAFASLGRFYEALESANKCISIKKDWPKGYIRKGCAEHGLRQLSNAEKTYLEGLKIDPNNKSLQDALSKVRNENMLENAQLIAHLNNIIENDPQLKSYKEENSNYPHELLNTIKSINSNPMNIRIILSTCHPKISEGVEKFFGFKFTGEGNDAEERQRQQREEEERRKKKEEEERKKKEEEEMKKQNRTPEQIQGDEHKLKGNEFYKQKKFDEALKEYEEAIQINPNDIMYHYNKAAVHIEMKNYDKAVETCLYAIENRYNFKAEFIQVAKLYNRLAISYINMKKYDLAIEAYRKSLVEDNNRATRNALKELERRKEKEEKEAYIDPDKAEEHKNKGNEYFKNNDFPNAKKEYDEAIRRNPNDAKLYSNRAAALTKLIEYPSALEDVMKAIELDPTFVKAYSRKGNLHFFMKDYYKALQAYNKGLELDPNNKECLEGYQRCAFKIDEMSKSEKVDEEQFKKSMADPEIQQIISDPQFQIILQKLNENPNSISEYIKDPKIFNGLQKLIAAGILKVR

[2] = molecular target: T2, Plasmodium falciparum Hsp70-Hsp90 organising protein (PfHop), recombinant, his-tagged (Plasmodium falciparum), Q8ILC1; assay: SPR; ProteOn XPR36, GLC chip, amine coupling; PfHop immobilised as ligand, PfHop 125-2000 nM as analyte (self-association); 25°C, PBS-Tween with 20 mM EDTA pH 7.4; no nucleotide, 5 mM ADP or 5 mM ATP; both purified; conditions: remark: other sources report otherwise
T2 chain: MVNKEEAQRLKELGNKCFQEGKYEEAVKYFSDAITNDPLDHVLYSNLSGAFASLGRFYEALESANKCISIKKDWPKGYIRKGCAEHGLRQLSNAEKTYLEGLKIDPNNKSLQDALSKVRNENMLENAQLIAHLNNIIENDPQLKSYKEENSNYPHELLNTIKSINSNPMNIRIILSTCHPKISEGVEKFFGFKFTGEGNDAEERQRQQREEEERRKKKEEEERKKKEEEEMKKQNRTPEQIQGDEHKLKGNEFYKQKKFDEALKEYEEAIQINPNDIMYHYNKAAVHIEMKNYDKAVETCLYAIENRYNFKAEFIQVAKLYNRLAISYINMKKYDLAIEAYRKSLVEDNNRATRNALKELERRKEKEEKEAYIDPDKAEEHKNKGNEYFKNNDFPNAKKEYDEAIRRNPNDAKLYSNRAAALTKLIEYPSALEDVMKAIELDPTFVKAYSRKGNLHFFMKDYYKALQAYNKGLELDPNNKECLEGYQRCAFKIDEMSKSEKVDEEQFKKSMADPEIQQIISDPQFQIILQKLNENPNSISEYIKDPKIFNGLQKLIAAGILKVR

[3] = molecular target: ATPase subdomain of PfHsp70-1 (PfHsp70-1NBD), recombinant, his-tagged (Plasmodium falciparum) (UniProt Q8IB24); assay: SPR; ProteOn XPR36, GLC chip, amine coupling; PfHsp70-1 or PfHsp70-1NBD (1 μg/mL) immobilised, PfHop 125-2000 nM as analyte (also repeated with ligand and analyte swapped); 25°C, PBS-Tween with 20 mM EDTA pH 7.4; no nucleotide, 5 mM ADP or 5 mM ATP; both purified

binding [1]: binds
Molecule: PfHsp70-1, endogenous in P. falciparum parasites (from UniProt Q8IB24 1-677)

binding [2]: binds
B1: Plasmodium falciparum Hsp70-Hsp90 organising protein (PfHop), recombinant, his-tagged, Q8ILC1 1-564 (protein)
chain: MVNKEEAQRLKELGNKCFQEGKYEEAVKYFSDAITNDPLDHVLYSNLSGAFASLGRFYEALESANKCISIKKDWPKGYIRKGCAEHGLRQLSNAEKTYLEGLKIDPNNKSLQDALSKVRNENMLENAQLIAHLNNIIENDPQLKSYKEENSNYPHELLNTIKSINSNPMNIRIILSTCHPKISEGVEKFFGFKFTGEGNDAEERQRQQREEEERRKKKEEEERKKKEEEEMKKQNRTPEQIQGDEHKLKGNEFYKQKKFDEALKEYEEAIQINPNDIMYHYNKAAVHIEMKNYDKAVETCLYAIENRYNFKAEFIQVAKLYNRLAISYINMKKYDLAIEAYRKSLVEDNNRATRNALKELERRKEKEEKEAYIDPDKAEEHKNKGNEYFKNNDFPNAKKEYDEAIRRNPNDAKLYSNRAAALTKLIEYPSALEDVMKAIELDPTFVKAYSRKGNLHFFMKDYYKALQAYNKGLELDPNNKECLEGYQRCAFKIDEMSKSEKVDEEQFKKSMADPEIQQIISDPQFQIILQKLNENPNSISEYIKDPKIFNGLQKLIAAGILKVR

B2: Plasmodium falciparum Hsp70-Hsp90 organising protein (PfHop), recombinant, his-tagged (natural protein, UniProt Q8ILC1 1-564, looked up)
chain: MVNKEEAQRLKELGNKCFQEGKYEEAVKYFSDAITNDPLDHVLYSNLSGAFASLGRFYEALESANKCISIKKDWPKGYIRKGCAEHGLRQLSNAEKTYLEGLKIDPNNKSLQDALSKVRNENMLENAQLIAHLNNIIENDPQLKSYKEENSNYPHELLNTIKSINSNPMNIRIILSTCHPKISEGVEKFFGFKFTGEGNDAEERQRQQREEEERRKKKEEEERKKKEEEEMKKQNRTPEQIQGDEHKLKGNEFYKQKKFDEALKEYEEAIQINPNDIMYHYNKAAVHIEMKNYDKAVETCLYAIENRYNFKAEFIQVAKLYNRLAISYINMKKYDLAIEAYRKSLVEDNNRATRNALKELERRKEKEEKEAYIDPDKAEEHKNKGNEYFKNNDFPNAKKEYDEAIRRNPNDAKLYSNRAAALTKLIEYPSALEDVMKAIELDPTFVKAYSRKGNLHFFMKDYYKALQAYNKGLELDPNNKECLEGYQRCAFKIDEMSKSEKVDEEQFKKSMADPEIQQIISDPQFQIILQKLNENPNSISEYIKDPKIFNGLQKLIAAGILKVR
binding [3]: no binding (tested: 2 μM)
